PubChem BioAssay AID1224831 | NIAID | 2016
Test: 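Confirming genome-wide hits on LPS-triggered TNF-alpha induction with independent siRNA sequences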 (follow-up of hits). System: human THP-1 B5 monocytic leukaemia cells carrying a TNF promoter luciferase reporter, made macrophage-like with PMA. Reagents: single siRNA against human genes, 50 nM. Duration: about 68 h of knock-down, then 4 h LPS. Treatment: LPS (Salmonella minnesota, TLR-grade) at 10 ng/ml for 4 h; PMA 5 ng/ml present during knock-down. Read-out: 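TNF promoter reporter read as dual luciferase ratio after 4 h LPS, normalised per plate to its median, given as replicate mean robust z-score per siRNA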. Direction: TNF reporter z-score: higher = stronger LPS-induced TNF reporter signal; z-score, median over gene's siRNAs: higher = stronger TNF reporter signal across the gene's siRNAs. Rule for the call: 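Active when the replicate mean z-score is about -1 or lower, or about 1.5 or higher; lowered and raised TNF reporter signal both count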. Calls: active = changed TNF reporter (either direction); inactive = little change.
This is a random part of about 3,500 reagents. 731 of them (21%) count as active. 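Active means either lowered or raised reporter signal; the gene-median score did not drive the per-siRNA calls.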 Entries without a mark were called inactive. Reagents against one gene are numbered here.

target,siRNA no.,"TNF reporter z-score, replicate mean","z-score, median over gene's siRNAs"
CT47A1 (GeneID 728096),1,0.53,0.235
CT47A1 (GeneID 728096),2,0.49,0.235
CT47A1 (GeneID 728096),3,-0.07,0.235
CT47A1 (GeneID 728096),4,4.55 (active),0.235
CT47A1 (GeneID 728096),5,-0.02,0.235
CT47A1 (GeneID 728096),6,-0.09,0.235
NXF1 (GeneID 10482),1,-1.86 (active),-1.51
NXF1 (GeneID 10482),2,-1.87 (active),-1.51
NXF1 (GeneID 10482),3,-1.65 (active),-1.51
NXF1 (GeneID 10482),4,-1.37 (active),-1.51
NXF1 (GeneID 10482),5,-0.84,-1.51
NXF1 (GeneID 10482),6,-0.5,-1.51
PRR14 (GeneID 78994),1,-0.2,0.19
PRR14 (GeneID 78994),2,-0.39,0.19
PRR14 (GeneID 78994),3,-0.23,0.19
PRR14 (GeneID 78994),4,0.58,0.19
PRR14 (GeneID 78994),5,0.92,0.19
PRR14 (GeneID 78994),6,0.79,0.19
FILIP1L (GeneID 11259),1,0.33,0.39
FILIP1L (GeneID 11259),2,-0.25,0.39
FILIP1L (GeneID 11259),3,0.45,0.39
FILIP1L (GeneID 11259),4,0.63,0.39
FILIP1L (GeneID 11259),5,-0.07,0.39
FILIP1L (GeneID 11259),6,0.68,0.39
ARID1B (GeneID 57492),1,-1.11 (active),-0.835
ARID1B (GeneID 57492),2,-1.21 (active),-0.835
ARID1B (GeneID 57492),3,-0.22,-0.835
ARID1B (GeneID 57492),4,-1.47 (active),-0.835
ARID1B (GeneID 57492),5,-0.56,-0.835
ARID1B (GeneID 57492),6,0.71,-0.835
IFIT1 (GeneID 3434),1,1.64 (active),1.33
IFIT1 (GeneID 3434),2,2.01 (active),1.33
IFIT1 (GeneID 3434),3,0.7,1.33
IFIT1 (GeneID 3434),4,1.03,1.33
IFIT1 (GeneID 3434),5,1.84 (active),1.33
IFIT1 (GeneID 3434),6,0.17,1.33
DYNLT5 (GeneID 200132),1,-0.22,-0.05
DYNLT5 (GeneID 200132),2,-0.2,-0.05
DYNLT5 (GeneID 200132),3,0.12,-0.05
DYNLT5 (GeneID 200132),4,0.12,-0.05
DYNLT5 (GeneID 200132),5,0.1,-0.05
DYNLT5 (GeneID 200132),6,-0.59,-0.05
UACA (GeneID 55075),1,-0.78,0.11
UACA (GeneID 55075),2,1.04,0.11
UACA (GeneID 55075),3,0.36,0.11
UACA (GeneID 55075),4,-1.31 (active),0.11
UACA (GeneID 55075),5,1.68 (active),0.11
UACA (GeneID 55075),6,-0.14,0.11

In a second layout: entries from further up
target | siRNA no. | TNF reporter z-score, replicate mean | z-score, median over gene's siRNAs
CT47A1 (GeneID 728096) | 2 | 0.49 | 0.235
CT47A1 (GeneID 728096) | 3 | -0.07 | 0.235
CT47A1 (GeneID 728096) | 4 | 4.55 (active) | 0.235
CT47A1 (GeneID 728096) | 5 | -0.02 | 0.235
CT47A1 (GeneID 728096) | 6 | -0.09 | 0.235
NXF1 (GeneID 10482) | 1 | -1.86 (active) | -1.51
NXF1 (GeneID 10482) | 2 | -1.87 (active) | -1.51
NXF1 (GeneID 10482) | 3 | -1.65 (active) | -1.51
NXF1 (GeneID 10482) | 4 | -1.37 (active) | -1.51
NXF1 (GeneID 10482) | 5 | -0.84 | -1.51
NXF1 (GeneID 10482) | 6 | -0.5 | -1.51
PRR14 (GeneID 78994) | 1 | -0.2 | 0.19

The listing continues.
target,siRNA no.,"TNF reporter z-score, replicate mean","z-score, median over gene's siRNAs"
PKIB (GeneID 5570),1,-1.16 (active),-0.415
PKIB (GeneID 5570),2,-0.53,-0.415
PKIB (GeneID 5570),3,0.76,-0.415
PKIB (GeneID 5570),4,-0.3,-0.415
PKIB (GeneID 5570),5,-0.05,-0.415
PKIB (GeneID 5570),6,-1.99 (active),-0.415
DGAT1 (GeneID 8694),1,1.21,-0.38
DGAT1 (GeneID 8694),2,-0.44,-0.38
DGAT1 (GeneID 8694),3,-0.57,-0.38
DGAT1 (GeneID 8694),4,-0.32,-0.38
DGAT1 (GeneID 8694),5,4.32 (active),-0.38
DGAT1 (GeneID 8694),6,-0.67,-0.38
SCRG1 (GeneID 11341),1,1.4,0.36
SCRG1 (GeneID 11341),2,0.96,0.36
SCRG1 (GeneID 11341),3,-0.14,0.36
SCRG1 (GeneID 11341),4,-0.16,0.36
SCRG1 (GeneID 11341),5,0.67,0.36
SCRG1 (GeneID 11341),6,0.05,0.36
PRRT1 (GeneID 80863),1,-0.9,-0.435
PRRT1 (GeneID 80863),2,-1.02 (active),-0.435
PRRT1 (GeneID 80863),3,-0.09,-0.435
PRRT1 (GeneID 80863),4,-0.54,-0.435
PRRT1 (GeneID 80863),5,1.55 (active),-0.435
PRRT1 (GeneID 80863),6,-0.33,-0.435
LAMB3 (GeneID 3914),1,0.14,0.67
LAMB3 (GeneID 3914),2,2.91 (active),0.67
LAMB3 (GeneID 3914),3,1.2,0.67
LAMB3 (GeneID 3914),4,-0.46,0.67
LAMB3 (GeneID 3914),5,1.5 (active),0.67
LAMB3 (GeneID 3914),6,-0.83,0.67
GPR156 (GeneID 165829),1,-0.63,-0.195
GPR156 (GeneID 165829),2,-0.32,-0.195
GPR156 (GeneID 165829),3,-0.07,-0.195
GPR156 (GeneID 165829),4,-0.87,-0.195
GPR156 (GeneID 165829),5,0.04,-0.195
GPR156 (GeneID 165829),6,0.15,-0.195
